{
  "source": "PubChem BioAssay AID504444",
  "about": "(National Center for Advancing Translational Sciences (NCATS), 2011)",
  "note": "Among all 360,000 compounds or so, about 7,500 (2.1%) were called active. This list was built around the results that the source calls inconclusive (neither active nor inactive); the mix of calls is not that of the screen. The call rests on the fitted dose curve; in most records, active means well fitted inhibition curve with a large enough effect; inconclusive means small, poorly fitted or top-dose-only effect, or effect the other way; inactive means flat fitted curve, though single readings scatter. Where the call is inconclusive, the potency comes from a doubtful curve fit. On the % scale 0 is the no-effect control and ±100 the full control effect; potency means the concentration at half of the fitted maximal effect.",
  "data": [
    {"test": "Nrf2 qHTS screen for inhibitors; further: nearly all actives have a fitted effect of over 60% in size", "conditions": "A549 ARE-Fluc reporter, luciferase luminescence, 18-24 h; activity change, negative = inhibition: at 46 µM (top of the series)", "how_it_was_run": "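Concentration-response testing used A549 ARE_Fluc cells at 5000 cells/well. Following an 18-24 h compound incubation, viability was read by fluorescence (Ex 405/Em 525) and luciferase output by luminescence.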", "values": [
      {"smiles": "O=C(c1cccc(F)c1)N1CCN(c2cc(N3CCCCC3)c(F)cc2[N+](=O)[O-])CC1", "Potency": "active: 20.6 µM"},
      {"smiles": "Cc1cc(-c2ccc(S(=O)(=O)Nc3cccc(Cl)c3C)cc2)on1", "Potency": "inconclusive: 32.6 µM [falling, single point]"},
      {"smiles": "Cc1c(C(=O)Nc2ccc(-c3nnc4n3CCCCC4)cc2)oc2ccc(Br)cc12", "Potency": "inconclusive: 25.9 µM [falling, partial curve, poor fit]"},
      {"smiles": "COc1ccc(CN(C)C(C)C(=O)Nc2ccc(S(=O)(=O)N3CCCCC3)cc2)cc1F", "note": "(stereo unspecified)", "Potency": "inconclusive: 20.6 µM [falling, single point]"},
      {"smiles": "Cc1ccc(OCCC(=O)NNC(=O)c2nn(C)c(=O)c3ccccc23)cc1", "Potency": "inconclusive: 20.6 µM [falling, partial curve, poor fit]"},
      {"smiles": "O=C(Nc1ccccc1)Nc1cc(OCC(F)(F)F)cc(OCC(F)(F)F)c1", "Potency": "inconclusive: 18.4 µM [falling, single point]"},
      {"smiles": "COCCNc1ccc(-c2nc(-c3ccccn3)no2)cc1[N+](=O)[O-]", "Potency": "inconclusive: 23.1 µM [activator, single point]"},
      {"smiles": "Cc1oc2c(CN3CCCCC3)c(O)ccc2c(=O)c1-c1ccc(Br)cc1", "Potency": "inconclusive: 25.9 µM [activator, single point]"},
      {"smiles": "O=C(N/N=C/c1ccc(O)cc1O)c1ccc(CN2C(=O)c3cccc4cccc2c34)cc1", "Potency": "active: 9.2 µM"},
      {"smiles": "CC(=O)N1CCN(c2ccccc2NC(=O)c2ccc(-c3cccc([N+](=O)[O-])c3)o2)CC1", "Potency": "inconclusive: 0.259 µM [activator, full curve, poor fit]"},
      {"smiles": "CCCc1nc(SCC(=O)Nc2cc(C)on2)c2c(=O)n(C)c(=O)n(C)c2n1", "Potency": "inconclusive: 1.03 µM [falling, partial curve, poor fit]"},
      {"smiles": "CC(C)(C)NC(=O)C(=O)N/N=C/c1cccs1", "Potency": "inconclusive: 20.6 µM [activator, partial curve, poor fit]"},
      {"smiles": "CCc1nnc(NC(=O)c2ccc(-c3ccccc3F)o2)s1", "Potency": "inconclusive: 18.4 µM [activator, partial curve]"},
      {"smiles": "COc1ccc(NC(=O)Cn2cc(C(C)=O)c3ccccc32)cc1", "Potency": "inconclusive: 23.1 µM [falling, partial curve, poor fit]"},
      {"smiles": "COc1ccccc1CC(=O)Nc1nc(-c2ccc(F)c(F)c2)cs1", "Potency": "active: 23.1 µM"},
      {"smiles": "Cc1nc(NC(=O)c2cnccn2)ccc1Br", "Potency": "inconclusive: 2.06 µM [activator, partial curve]"},
      {"smiles": "O=C(C=Cc1ccccc1O)c1ccccc1O", "activity change, negative = inhibition": "inactive: 5.44%"},
      {"smiles": "CCCCNC(=O)c1ccc2c(c1)NC(=O)C(CS(=O)(=O)Cc1ccc(F)cc1Cl)N2", "note": "(stereo unspecified)", "activity change, negative = inhibition": "inactive: 15.6%"},
      {"smiles": "N/C(=N\\OC(=O)c1cccc(Cn2cc(C(F)(F)F)ccc2=O)c1)c1ccc(Cl)cc1", "Potency": "inconclusive: 18.4 µM [falling, partial curve]"},
      {"smiles": "CCS(=O)(=O)N1CCN(c2ccc(C(=O)NC34CC5CC(CC(C5)C3)C4)cc2[N+](=O)[O-])CC1", "activity change, negative = inhibition": "inactive: -13.8%"},
      {"smiles": "C/C(=N/OC(=O)CC(C)C)c1cc(-c2ccc(Cl)cc2)no1", "Potency": "inconclusive: 25.9 µM [activator, partial curve, poor fit]"},
      {"smiles": "COc1cccc(NC(=O)CCN2CCN(CCO)CC2)c1", "activity change, negative = inhibition": "inactive: 8.95%"},
      {"smiles": "Cc1ccc(-c2cc3nc(C)cc(NCc4ccco4)n3n2)cc1", "Potency": "inconclusive: 1.64 µM [activator, full curve]"},
      {"smiles": "CCOc1ccc(-n2cc(-c3ccccc3)c3c(=S)nc[nH]c32)cc1", "Potency": "inconclusive: 25.9 µM [falling, partial curve, poor fit]"},
      {"smiles": "O=C(NCc1ccco1)C(=O)NCc1ccccc1Cl", "Potency": "inconclusive: 0.517 µM [activator, full curve]"},
      {"smiles": "CCn1cc(C(=O)Nc2ccc(C(C)C)cc2)c2cc(OC)c(OC)cc2c1=O", "activity change, negative = inhibition": "inactive: 12.9% [at 9.27 µM]"},
      {"smiles": "Cc1ccc2cc3cc(C(=O)N(C)c4ccccc4C)oc3nc2c1", "Potency": "inconclusive: 2.59 µM [activator, full curve]"},
      {"smiles": "O=C(c1ccc2c(=O)n(Cc3ccco3)c(=S)[nH]c2c1)N1CCN(Cc2ccccc2)CC1", "Potency": "inconclusive: 23.1 µM [falling, single point]"},
      {"smiles": "COc1ccc(C(=O)C2CCCN(C(=O)CCc3scnc3C)C2)c(C)c1", "note": "(stereo unspecified)", "Potency": "inconclusive: 29.1 µM [falling, single point]"},
      {"smiles": "Cc1cc(C)c(C#N)c(SCc2nnc(-c3ccccc3[N+](=O)[O-])o2)n1", "Potency": "inconclusive: 1.64 µM [activator, full curve, poor fit]"},
      {"smiles": "C/C(=N\\NC(=O)COc1ccccc1[N+](=O)[O-])c1cccc(NC(=O)c2ccncc2)c1", "Potency": "inconclusive: 29.1 µM [falling, single point]"},
      {"smiles": "N#CC1=C(SCC(=O)Nc2ccccc2)NC(=O)CC1c1ccc(O)cc1", "note": "(stereo unspecified)", "Potency": "inconclusive: 9.2 µM [activator, partial curve]"},
      {"smiles": "Oc1ccc(C(=S)N2CCCCC2)cc1Cl", "Potency": "inconclusive: 5.17 µM [falling, partial curve, poor fit]"},
      {"smiles": "COc1cccc(CNc2ccc3[nH]c(=O)[nH]c3c2)c1OCc1ccc(F)cc1", "Potency": "inconclusive: 32.6 µM [falling, partial curve, poor fit]"},
      {"smiles": "Cc1ccc(/C=N/NC(=O)c2ccc(Br)o2)s1", "Potency": "inconclusive: 8.2 µM [activator, partial curve]"},
      {"smiles": "NC(=O)CSc1nnc(-c2ccc3c(c2)OCO3)o1", "Potency": "inconclusive: 0.58 µM [activator, full curve]"},
      {"smiles": "CCCNC(=O)N1CCC(c2nc3ccccc3s2)CC1", "Potency": "inconclusive: 29.1 µM [falling, single point]"},
      {"smiles": "COCC(C)n1c(C)cc(C(=O)CSc2nc(C)c(C)c(C)n2)c1C", "note": "(stereo unspecified)", "Potency": "inconclusive: 32.6 µM [falling, single point]"},
      {"smiles": "CCOc1ccc(NC(=O)c2ccc(-c3csc(C)n3)cc2)cc1", "Potency": "inconclusive: 2.59 µM [falling, full curve]"},
      {"smiles": "CC(=O)c1cc(-c2ccccc2)n(CC(=O)NCc2ccccc2C)c1C", "activity change, negative = inhibition": "inactive: 6.18%"},
      {"smiles": "Cc1ccc(C(=O)NC(=O)CSc2ncccc2C(=O)O)cc1", "activity change, negative = inhibition": "inactive: -1.92%"}
    ]}
  ]
}
